In PMC5630627:
Results are given in words; binding and its absence hold for the method and conditions named. Binding seen in cells or lysates may run through a third protein. Some entries that bind do so weakly or less than the wild type. For part of these data: Where a sequence is shown, tags or fusion partners need not be part of it.

Key:
[1] = target: T1, GFP-tagged DAPk1 Ca2+-calmodulin (CaM) domain (aa 275-650) (UniProt P53355); experiment: co-IP; 293T cells transfected with GFP-tagged DAPk1 deletion constructs and infected with HA-Ad-Bik; immunoprecipitation with anti-HA or anti-GFP antibodies; blots for GFP, HA, activated Bak (Fig. 3c)
T1 sequence: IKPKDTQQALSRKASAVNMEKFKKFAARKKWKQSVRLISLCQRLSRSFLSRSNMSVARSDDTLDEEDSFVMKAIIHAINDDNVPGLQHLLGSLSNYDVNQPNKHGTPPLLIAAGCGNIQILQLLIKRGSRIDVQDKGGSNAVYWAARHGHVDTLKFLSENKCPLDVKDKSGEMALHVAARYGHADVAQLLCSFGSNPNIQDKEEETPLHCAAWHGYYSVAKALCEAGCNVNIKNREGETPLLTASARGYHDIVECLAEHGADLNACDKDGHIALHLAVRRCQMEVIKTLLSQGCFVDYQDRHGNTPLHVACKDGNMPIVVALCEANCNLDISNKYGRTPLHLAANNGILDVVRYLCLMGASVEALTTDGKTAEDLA

[2] = target: T2, GFP-tagged DAPk1 kinase domain (aa 1-274) (UniProt P53355); experiment: as above
T2 sequence: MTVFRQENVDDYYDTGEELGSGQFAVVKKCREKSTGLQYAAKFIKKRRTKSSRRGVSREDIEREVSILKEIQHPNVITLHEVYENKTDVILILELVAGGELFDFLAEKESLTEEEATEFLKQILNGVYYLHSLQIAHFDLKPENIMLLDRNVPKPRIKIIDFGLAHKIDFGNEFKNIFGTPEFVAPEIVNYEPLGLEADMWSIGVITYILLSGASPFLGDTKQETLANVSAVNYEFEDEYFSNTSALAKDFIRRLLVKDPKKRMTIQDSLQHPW

[3] = target: Flag-tagged DAPk1 (UniProt P53355); experiment: co-IP; 293T cells transfected with Flag-DAPk1 or Flag-DAPk1^K42A (in Fig. 3m also with empty vector or Bcl-2b5), 48 h later infected with 100 MOI HA-Ad-Bik or HA-Ad-Bik^L61G, 24 h; lysates immunoprecipitated with anti-Flag antibodies; western blot (Fig. 3b, 3d, 3m)
[4] = target: T3, Flag-tagged DAPk1^K42A (UniProt P53355); experiment: as above
T3 sequence: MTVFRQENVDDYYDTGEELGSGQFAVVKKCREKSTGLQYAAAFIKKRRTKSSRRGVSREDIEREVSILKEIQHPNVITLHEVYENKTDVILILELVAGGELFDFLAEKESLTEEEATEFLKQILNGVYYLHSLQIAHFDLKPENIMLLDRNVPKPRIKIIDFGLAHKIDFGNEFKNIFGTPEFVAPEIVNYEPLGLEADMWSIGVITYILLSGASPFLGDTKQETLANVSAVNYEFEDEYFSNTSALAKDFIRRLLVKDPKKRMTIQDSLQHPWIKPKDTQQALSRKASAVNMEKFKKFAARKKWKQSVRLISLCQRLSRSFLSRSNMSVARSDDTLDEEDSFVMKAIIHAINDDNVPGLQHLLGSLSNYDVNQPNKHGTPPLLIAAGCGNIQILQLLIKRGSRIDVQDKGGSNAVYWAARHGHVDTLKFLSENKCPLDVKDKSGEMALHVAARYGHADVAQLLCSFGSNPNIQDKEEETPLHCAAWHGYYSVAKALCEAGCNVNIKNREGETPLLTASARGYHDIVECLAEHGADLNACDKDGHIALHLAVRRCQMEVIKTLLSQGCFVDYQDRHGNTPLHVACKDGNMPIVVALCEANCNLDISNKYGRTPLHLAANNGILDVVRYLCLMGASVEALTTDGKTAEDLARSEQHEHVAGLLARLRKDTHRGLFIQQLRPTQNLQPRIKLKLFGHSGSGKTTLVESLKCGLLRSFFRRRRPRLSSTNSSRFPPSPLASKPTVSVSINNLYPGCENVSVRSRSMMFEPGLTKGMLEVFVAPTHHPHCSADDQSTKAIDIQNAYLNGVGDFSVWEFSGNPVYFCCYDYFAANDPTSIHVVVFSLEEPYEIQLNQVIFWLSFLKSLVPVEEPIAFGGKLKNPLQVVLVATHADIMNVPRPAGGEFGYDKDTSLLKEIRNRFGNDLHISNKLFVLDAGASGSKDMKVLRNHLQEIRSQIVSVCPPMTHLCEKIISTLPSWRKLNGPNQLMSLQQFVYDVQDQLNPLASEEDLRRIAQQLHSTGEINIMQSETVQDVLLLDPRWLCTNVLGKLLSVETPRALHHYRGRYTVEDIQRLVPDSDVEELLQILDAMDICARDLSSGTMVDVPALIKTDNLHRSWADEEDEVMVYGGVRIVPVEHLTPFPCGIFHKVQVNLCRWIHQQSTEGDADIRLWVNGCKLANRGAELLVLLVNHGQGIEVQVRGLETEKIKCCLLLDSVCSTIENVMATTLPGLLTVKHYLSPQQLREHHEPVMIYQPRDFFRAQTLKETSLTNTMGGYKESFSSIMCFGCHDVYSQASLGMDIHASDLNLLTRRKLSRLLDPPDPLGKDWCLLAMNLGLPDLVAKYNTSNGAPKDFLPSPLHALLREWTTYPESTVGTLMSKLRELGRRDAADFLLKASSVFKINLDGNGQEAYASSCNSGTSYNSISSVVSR

[5] = target: T4, Bak^WT, retrovirally expressed, Q16611; experiment: cross-linking; ER fractions of HCT116 cells transduced with Bak^WT or Bak^Y108A and infected with 100 MOI Ad-Bik; 5 mM BMH, 30 min, room temperature; SDS-PAGE, anti-Bak blot; settings: remark: other sources report otherwise
T4 chain: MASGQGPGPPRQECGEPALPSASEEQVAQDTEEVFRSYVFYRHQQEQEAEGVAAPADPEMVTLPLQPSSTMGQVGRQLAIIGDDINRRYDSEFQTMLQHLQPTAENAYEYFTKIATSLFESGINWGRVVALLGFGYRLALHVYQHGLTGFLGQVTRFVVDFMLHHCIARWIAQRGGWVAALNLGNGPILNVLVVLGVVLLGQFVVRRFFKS

[6] = target: Bak^Y108A, retrovirally expressed (UniProt Q16611); experiment: as above

B1: Bak (endogenous) (protein, UniProt Q16611 1-211)
chain: MASGQGPGPPRQECGEPALPSASEEQVAQDTEEVFRSYVFYRHQQEQEAEGVAAPADPEMVTLPLQPSSTMGQVGRQLAIIGDDINRRYDSEFQTMLQHLQPTAENAYEYFTKIATSLFESGINWGRVVALLGFGYRLALHVYQHGLTGFLGQVTRFVVDFMLHHCIARWIAQRGGWVAALNLGNGPILNVLVVLGVVLLGQFVVRRFFKS
- binding [1]: binds
- binding [2]: binds
- binding [3]: binds
- binding [4]: binds

B2: Bak^WT, retrovirally expressed, Q16611 1-211 (protein)
chain: MASGQGPGPPRQECGEPALPSASEEQVAQDTEEVFRSYVFYRHQQEQEAEGVAAPADPEMVTLPLQPSSTMGQVGRQLAIIGDDINRRYDSEFQTMLQHLQPTAENAYEYFTKIATSLFESGINWGRVVALLGFGYRLALHVYQHGLTGFLGQVTRFVVDFMLHHCIARWIAQRGGWVAALNLGNGPILNVLVVLGVVLLGQFVVRRFFKS
- binding [5]: binds

B3: Bak^Y108A, retrovirally expressed (protein, UniProt Q16611 1-211)
chain: MASGQGPGPPRQECGEPALPSASEEQVAQDTEEVFRSYVFYRHQQEQEAEGVAAPADPEMVTLPLQPSSTMGQVGRQLAIIGDDINRRYDSEFQTMLQHLQPTAENAAEYFTKIATSLFESGINWGRVVALLGFGYRLALHVYQHGLTGFLGQVTRFVVDFMLHHCIARWIAQRGGWVAALNLGNGPILNVLVVLGVVLLGQFVVRRFFKS
- binding [6]: binds
